Results as given in PubChem BioAssay AID2685 (National Center for Advancing Translational Sciences (NCATS), 2010).
About 2,100 (0.66%) of roughly 320,000 compounds were called active. Calls follow the shape of the dose curve; as a rule, active = well fitted inhibition curve with a large enough effect in the signal ratio, with a control signal flat (not every such curve was filed as active); inconclusive = small, poorly fitted or top-dose-only effect, or effect the other way, or a change in a side signal; inactive = flat fitted curve, though single readings scatter; the % refers to the signal ratio. The inconclusive results got no clear call from the source. A potency beside an inconclusive call is a rough fit, not a confirmed value.

Assay: qHTS Assay for Lipid Storage Modulators in Drosophila S3 Cells
Settings: BODIPY lipid droplet fluorescence, 18-24 h, cells fed with added oleic acid; lipid storage change, negative = inhibition: at 46.1 µM (top of the series) unless noted
How it was run: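 Laser-scanning cytometry quantifies lipid droplet accumulation (500–530 nm total intensity; droplet/cell object ratio) in oleic acid-fed (400 uM added) Drosophila S3 cells treated with a concentration series. 20 uM Triacsin C defined 100% inhibition.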
% is scaled to controls: 0 for no effect and ±100 for the full control effect; potency is read from the fitted curve at half-maximal effect.

Lipid storage change, negative = inhibition, inconclusive:
Cc1cc(C)c(C2=Nn3c(C)nnc3SC2C)cc1C (centres undefined) -16.3%
O=C(CCNS(=O)(=O)c1ccccc1C(F)(F)F)N1CCN(S(=O)(=O)c2cccc(F)c2)CC1 21.5%
COc1ccc(S(=O)(=O)N2CCN(C(=O)NCc3ccc(C)cc3)CC2)cc1 -100%
COC(=O)c1ccccc1NC(=O)c1cc(C2CC2)on1 48.6%
CCN(CC)S(=O)(=O)c1ccc(C(=O)OCC(=O)NCCN2C(=O)CSC2=O)cc1 -30.5%
CCCOc1ccc(N2C(=O)CC(N3CCN(c4ccccc4OC)CC3)C2=O)cc1 (centres undefined) -3.73%
Cc1cccc(OCCNC(=O)CSc2ccc(C(F)(F)F)cc2[N+](=O)[O-])c1 -0.57%
COc1ccc(CN(C)C(=O)C2CC(=O)N(c3ccc4c(c3)OCCO4)C2)c(OC)c1 (centres undefined) -31%
O=C1C2CCCN2C(=O)N1CCN1CCN(CCO)CC1 (centres undefined) 0.335%
COc1ccc(C(=O)NCCc2c[nH]c3ccccc23)cc1S(=O)(=O)N1CCOCC1 8.5%
CN(C)CCN(Cc1cccs1)S(=O)(=O)c1csc(C(N)=O)c1 39.9%
CC(CN1c2ccccc2Sc2ccccc21)N(C)C (centres undefined) 18.9%
O=C(Cc1cccs1)N(c1ccccc1)C1C=CS(=O)(=O)C1 (centres undefined) 11.4%
CC(Oc1ccc2c(-c3ccccc3)cc(=O)oc2c1)C(=O)N1CCC[C@@H]1C(N)=O (some centres undefined) 68.3%
Cc1cc(/C=C2/NC(=O)N(c3ccccc3)C2=O)c(C)n1-c1cccnc1 -13.7%
CC1CCN(C(=O)COC(=O)c2ccc(Br)o2)CC1 20.5%
Cc1nc(-c2ccccc2)sc1-c1nc(-c2cccs2)ncc1S(=O)(=O)c1ccccc1 19.4%
COc1ccc(CNC(=O)C[C@H]2C(=O)N(C3CCCCC3)C[C@@H]2Cc2ccccc2)cc1 -24.5%
Cc1ccc(SCC(=O)OCC(=O)NCC2CCCCC2)cc1C 11.4%
O=c1c2cc(Br)ccc2nc(-c2cccc(Cl)c2)n1O -13.6%
Cc1cc(=O)oc2c3c(cc(OCC(=O)NC(C)C)c12)OC(C)(C)CC3 -3.8%
CCOC(=O)C1=C(C)NC(C)=C(C(=O)OCC)C1C(=O)OCC(=O)N(C)C1CCS(=O)(=O)C1 (centres undefined) -21.6%
CCCCOC(=O)c1ccc(NC(=O)/C=C/c2cccs2)cc1 -17.3%
COc1ccc(-c2[nH]ncc2CN(C)Cc2cccnc2)c(OC)c1 12.2%
COC(=O)[C@H](Cc1ccccc1)NC(=O)NCc1ccc(S(N)(=O)=O)cc1 -79.7%
Cc1cc(CNC(=O)Cc2c(F)cccc2Cl)nn1C -7.74%
Cc1ccc(S(=O)(=O)N(C)C)cc1NC(=O)C(C)OC(=O)c1ccc2ccccc2n1 (centres undefined) 19.9%
CCCc1cc(C(=O)OC)c(NC(=O)OCC)s1 35.9%
c1ccc(-c2nn3c(-c4ccco4)nnc3s2)nc1 -7.98%
COc1cc(C)c(NC(=S)Nc2ccc(C)c(Cl)c2)cc1OC 24.6%
CCOc1ccc(S(=O)(=O)NNC(=O)c2cc3ccccc3o2)cc1 32.4%
CN1CCN(c2ccc(NC(=S)NC(=O)/C=C/c3ccco3)cc2)CC1 43.8%
COc1ccc(C(=O)Nc2ccc(Cl)cc2C(=O)NCCO)cc1 12%
CSc1ccc(OCC(=O)Nc2ccc(N3CCOCC3)c(Cl)c2)cc1 -100%
COc1ccc2sc(NC(=O)NC(=O)c3c(Cl)cccc3Cl)nc2c1 5.41%

Quoted at random: 2 compounds from above.
Lipid storage change, negative = inhibition, inconclusive:
COC(=O)c1ccccc1NC(=O)c1cc(C2CC2)on1 48.6%
Cc1cc(CNC(=O)Cc2c(F)cccc2Cl)nn1C -7.74%

Next part.

Potency, inconclusive:
CCOC(=O)c1cnn(-c2ncnc3sc(CC)cc23)c1N 3660 nM [activator, single point]
CCSc1nnc(NC(=O)CSc2nc(C)cc(C)n2)s1 1840 nM [falling, partial curve]
CCCCc1[nH]c(=O)c(C#N)c2c1CSC(C)(C)C2 651 nM [activator, full curve]
CC(=O)n1c(Cl)c(NC(=O)CCl)c2ccccc21 82 nM [falling, full curve]
Cc1cccc(NC(=O)Nc2cccc3ccccc23)c1 51.7 nM [activator, full curve, poor fit]
Cc1ccc2c(CC(=O)NCC(=O)Nc3c(C)cccc3C)coc2c1 29100 nM [activator, single point]
CNC1(c2nnnn2-c2c(C)cccc2C)CCOC(C)(C)C1 (centres undefined) 29100 nM [activator, single point]
COCCn1nnnc1C(C(C)C)N1CCN(C(=O)c2ccco2)CC1 (centres undefined) 25900 nM [falling, partial curve, poor fit]
O=C(c1cc2nc(-c3ccco3)cc(C(F)(F)F)n2n1)N1CCN(c2ccc(F)cc2)CC1 1840 nM [activator, full curve]
CC1(C)CC(=O)C2=C(C1)NC(SCC(=O)Nc1ccccc1)=C(C#N)C2c1ccco1 (centres undefined) 517 nM [activator, partial curve]
O=C1CCc2cc(S(=O)(=O)NC(Cc3ccccc3)C(=O)NCC3CCCO3)ccc2N1 (centres undefined) 16400 nM [activator, single point]
Cc1cccc(NS(=O)(=O)c2ccc(C)c(C(=O)N(C)C3CCN(C)CC3)c2)c1 580 nM [activator, full curve]
C=CCN=C1N[C@@H](c2ccc(Br)cc2)C(C(=O)OC)=C(C)N1Cc1ccccc1 366 nM [falling, full curve, poor fit]
CCC(C(=O)OCC(=O)Nc1c(C)n(C)n(-c2ccccc2)c1=O)c1ccccc1 (centres undefined) 1460 nM [falling, partial curve]

Part of the list above in order of count of non-hydrogen atoms, falling.
Potency, inconclusive:
O=C1CCc2cc(S(=O)(=O)NC(Cc3ccccc3)C(=O)NCC3CCCO3)ccc2N1 (centres undefined) 16400 nM [activator, single point]
CCC(C(=O)OCC(=O)Nc1c(C)n(C)n(-c2ccccc2)c1=O)c1ccccc1 (centres undefined) 1460 nM [falling, partial curve]
Cc1cccc(NS(=O)(=O)c2ccc(C)c(C(=O)N(C)C3CCN(C)CC3)c2)c1 580 nM [activator, full curve]
Cc1ccc2c(CC(=O)NCC(=O)Nc3c(C)cccc3C)coc2c1 29100 nM [activator, single point]
CNC1(c2nnnn2-c2c(C)cccc2C)CCOC(C)(C)C1 (centres undefined) 29100 nM [activator, single point]
Cc1cccc(NC(=O)Nc2cccc3ccccc23)c1 51.7 nM [activator, full curve, poor fit]
CC(=O)n1c(Cl)c(NC(=O)CCl)c2ccccc21 82 nM [falling, full curve]
